Source: ChEMBL document CHEMBL3988442, “University of Dundee, Small-Polar-MMV Screening Library” (2021).

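Growth of Mycobacterium tuberculosis over 3 days (7H9 medium with glucose and tyloxapol); the read-out is not stated. Tested at 50 µM. Direction is inferred from retests: higher values go with more growth inhibition. Size under these conditions: about 69,000 compounds, about 760 of them at 50% or above in at least one test.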

Results are given as percent effect.
The controls that fix the scale are not given in the record; negative values are as filed.
This is an unselected part of the compounds tested.
Two or more numbers in one place are separate tests of the same structure; such repeats can differ widely.

With Cc1nc(C)c(C)c(N2CCC(O)(c3ccc(F)cc3)CC2)n1 the screen gave -1.072%. For Cc1cc(C)n(CC2CCCN2CCc2ccccn2)n1 (configuration not stated) the result was 5.993%. O=C(O)C(F)(F)F.O=C(O)C(F)(F)F.O=C1CC(c2ccncc2)C2(CCN(CC3CC3)CC2)N1 (configuration not stated) gave -33.85%. CCN1CCN(C)C2(CCN(Cc3ccsc3)CC2)C1=O.O=C(O)C(F)(F)F.O=C(O)C(F)(F)F read -11.46%. For O=C(c1ccc(F)c(F)c1)N1CCCC(Nc2ccc(F)cc2)C1 (configuration not stated) the result was 10.39%. For CC(C)c1cc(N2CCN(c3ccc(O)cc3)CC2)n2nccc2n1 the result was 9.172%.

CCC(C(=O)NCc1csc(-c2ncccn2)n1)n1cccn1 (configuration not stated) read -12.29%. CC(O)(CCc1ccccc1)CNC(=O)c1ccsc1 (configuration not stated) read 29.53% and 12.65%. CN1CC2(CCN(C(=O)Cc3ccc(O)c(F)c3)CC2)CC1=O read -15.5%. Cc1ccc(C(=O)NCCCNS(C)(=O)=O)cc1-n1cccc1 read 14.07% and 4.882%. CC(C(=O)N1CCCN(Cc2cnn(C)c2)CC1)n1ccnc1 (configuration not stated) gave -2.848%. Result for Cl.Cl.O=C(NCc1cncc2c1CCN(C1CCOCC1)C2)c1ccno1 was -7.277%.

For COC(=O)N1CCCC(NC(=O)NCc2csc(C)n2)C1 (configuration not stated) the result was -4.779%. Cc1nsc(N2CCN(CC(=O)NCc3ccc(F)cc3)CC2)n1 gave 14.1%. With CCc1ccccc1NCc1nc2[nH]c(C)c(C)c(=O)n2n1 the screen gave -35.23%. COc1c(CNCC(O)c2ccccc2F)c(C(C)C)nn1C (configuration not stated) read -12.66%. COc1cc(F)ccc1N(C)Cc1ccncc1 read -11.89%. COc1ccc(CN(C)[C@@H]2COC[C@H]2c2ccc(F)cc2)cc1.O=C(O)CC(O)(CC(=O)O)C(=O)O read 34.54%.

For COc1cn(CC(=O)N2CCN(c3ccc(F)cc3)CC2)c(C)cc1=O the result was 7.124%. With CC(C)(CNc1cn[nH]c(=O)c1Cl)c1ccc2c(c1)OCCO2 the screen gave -14.27% and 6.257%. With CC1CCN(S(=O)(=O)N2CCc3sccc3C2)CC1 the screen gave 19.7%. For COc1ccc(-c2cccc(-c3ccn(CCCN(C)C)n3)c2)nn1 the result was 25.34% and 6.063%. For CCc1nc(CCNc2ccc(S(N)(=O)=O)cc2C#N)cs1 the result was 26.24%. With CN(CC(=O)N1CCN(c2ncccn2)CC1)c1ccc(Cl)cn1 the screen gave 8.915%.

COc1cccc(C(=O)N2CCN(C(=O)CCCn3ccnc3)CC2)c1 gave -11.23%. Result for CC(C)[C@@H]1CN(CCOc2ccc(Cl)cc2)C[C@H]1NS(C)(=O)=O was 10.42%. COCc1cc(CNC(=O)c2cc(NC(C)=O)ccc2Cl)n[nH]1 gave -3.871%. Cc1cc(C(F)(F)F)nc(CCNC(C)Cn2ccnc2)n1 (configuration not stated) read 0.7129%. Result for Cc1ccc(C(C)NC(=O)Nc2ccccc2CN2CCOCC2)o1 (configuration not stated) was 9.609%. For O=C(O)c1cc(-c2ccncc2F)cc(S(=O)(=O)N2CCCCCC2)c1 the result was -13.87%.

Result for CCOC(=O)N1CCN(c2nc(NC)c3ccccc3n2)CC1 was 14.11%. COCc1nc(C(=O)N2CCCC(n3nc(C)cc3C)C2)cs1 (configuration not stated) read -22.11%.

4 of the entries, repeated:

compound,effect
CCOC(=O)N1CCN(c2nc(NC)c3ccccc3n2)CC1,14.11
CCN1CCN(C)C2(CCN(Cc3ccsc3)CC2)C1=O.O=C(O)C(F)(F)F.O=C(O)C(F)(F)F,-11.46
COC(=O)N1CCCC(NC(=O)NCc2csc(C)n2)C1 (configuration not stated),-4.779
COc1ccc(-c2cccc(-c3ccn(CCCN(C)C)n3)c2)nn1,25.34 and 6.063